Assay results: publication doi:10.1101/2023.05.15.540505
Results are given in words; binding and its absence hold for the method and conditions named. In cells and extracts the contact can be indirect. Some binding calls cover weakened binding; strength is not graded here.

Sequences of proteins named here, by UniProt entry; tags and fusion partners are left off. Residues count along the entry.
UniProt Q9BZS1, residues 1-417: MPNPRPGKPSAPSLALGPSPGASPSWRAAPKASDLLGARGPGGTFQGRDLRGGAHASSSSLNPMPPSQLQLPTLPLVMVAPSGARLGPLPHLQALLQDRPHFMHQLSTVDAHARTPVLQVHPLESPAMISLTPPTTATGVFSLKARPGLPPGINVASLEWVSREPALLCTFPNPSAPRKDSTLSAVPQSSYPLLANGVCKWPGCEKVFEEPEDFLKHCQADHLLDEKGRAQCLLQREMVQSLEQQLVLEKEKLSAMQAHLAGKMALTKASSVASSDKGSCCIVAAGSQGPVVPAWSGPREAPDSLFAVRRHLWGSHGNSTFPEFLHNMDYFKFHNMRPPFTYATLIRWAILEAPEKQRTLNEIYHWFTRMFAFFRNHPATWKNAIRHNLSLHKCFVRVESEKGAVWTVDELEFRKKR
UniProt Q9UKT9: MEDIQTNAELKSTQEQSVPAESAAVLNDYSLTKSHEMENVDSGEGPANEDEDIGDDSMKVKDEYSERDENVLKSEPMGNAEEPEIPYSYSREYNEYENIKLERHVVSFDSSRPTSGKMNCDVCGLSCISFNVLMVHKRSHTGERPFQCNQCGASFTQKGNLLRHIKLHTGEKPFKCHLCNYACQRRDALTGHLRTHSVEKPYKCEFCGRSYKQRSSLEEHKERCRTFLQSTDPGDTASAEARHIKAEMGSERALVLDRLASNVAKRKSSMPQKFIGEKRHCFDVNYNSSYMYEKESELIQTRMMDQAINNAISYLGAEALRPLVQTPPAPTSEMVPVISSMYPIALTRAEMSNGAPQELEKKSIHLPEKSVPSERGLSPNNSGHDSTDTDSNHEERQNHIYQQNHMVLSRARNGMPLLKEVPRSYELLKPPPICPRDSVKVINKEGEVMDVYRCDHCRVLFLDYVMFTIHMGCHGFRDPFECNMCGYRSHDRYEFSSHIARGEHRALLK
UniProt Q01196: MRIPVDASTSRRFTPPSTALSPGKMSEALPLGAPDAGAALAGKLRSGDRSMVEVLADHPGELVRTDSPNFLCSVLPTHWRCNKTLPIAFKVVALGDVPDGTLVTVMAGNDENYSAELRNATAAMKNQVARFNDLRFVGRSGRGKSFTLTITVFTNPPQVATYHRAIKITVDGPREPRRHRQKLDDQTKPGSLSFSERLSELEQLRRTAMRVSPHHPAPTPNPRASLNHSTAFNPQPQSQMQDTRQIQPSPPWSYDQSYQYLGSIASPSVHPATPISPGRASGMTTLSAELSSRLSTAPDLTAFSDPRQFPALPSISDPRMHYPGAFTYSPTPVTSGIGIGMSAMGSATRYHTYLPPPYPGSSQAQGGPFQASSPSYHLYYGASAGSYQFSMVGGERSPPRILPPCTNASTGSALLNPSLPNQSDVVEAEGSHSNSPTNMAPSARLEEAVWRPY

What was measured:
Test in all cases: co-IP
[1] = target: Forkhead box P3 (FOXP3) (human (endogenous in iTreg cells)) (UniProt Q9BZS1)
[2] = target: IKZF3 (human (endogenous in iTreg cells)) (UniProt Q9UKT9)
[3] = target: Runt-related transcription factor 1 (RUNX1) (human (endogenous in iTreg cells)) (UniProt Q01196)

Measured: binding

B1: hypermethylated in cancer 1 (HIC1) (protein, UniProt Q14526 1-733)
chain: MTFPEADILLKSGECAGQTMLDTMEAPGHSRQLLLQLNNQRTKGFLCDVIIVVQNALFRAHKNVLAASSAYLKSLVVHDNLLNLDHDMVSPAVFRLVLDFIYTGRLADGAEAAAAAAVAPGAEPSLGAVLAAASYLQIPDLVALCKKRLKRHGKYCHLRGGGGGGGGYAPYGRPGRGLRAATPVIQACYPSPVGPPPPPAAEPPSGPEAAVNTHCAELYASGPGPAAALCASERRCSPLCGLDLSKKSPPGSAAPERPLAERELPPRPDSPPSAGPAAYKEPPLALPSLPPLPFQKLEEAAPPSDPFRGGSGSPGPEPPGRPDGPSLLYRWMKHEPGLGSYGDELGRERGSPSERCEERGGDAAVSPGGPPLGLAPPPRYPGSLDGPGAGGDGDDYKSSSEETGSSEDPSPPGGHLEGYPCPHLAYGEPESFGDNLYVCIPCGKGFPSSEQLNAHVEAHVEEEEALYGRAEAAEVAAGAAGLGPPFGGGGDKVAGAPGGLGELLRPYRCASCDKSYKDPATLRQHEKTHWLTRPYPCTICGKKFTQRGTMTRHMRSHLGLKPFACDACGMRFTRQYRLTEHMRIHSGEKPYECQVCGGKFAQQRNLISHMKMHAVGGAAGAAGALAGLGGLPGVPGPDGKGKLDFPEGVFAVARLTAEQLSLKQQDKAAAAELLAQTTHFLHDPKVALESLYPLAKFTAELGLSPDKAAEVLSQGAHLAAGPDGRTIDRFSPT
binds: [1] | [2] | [3]
